Source: article PMC10365314, “Noncanonical contribution of microglial transcription factor NR4A1 to post-stroke recovery through TNF mRNA destabilization”
For at least one entry, the source does not settle the construct or the ends of the probe. Weaker means in comparison with the reference protein, sequence or condition of that experiment. For some assays here: At least one result comes from cells or an extract, where the contact may be indirect.

The chains behind the UniProt entries cited, without tags or fusion partners.
UniProt P12813, whole entry: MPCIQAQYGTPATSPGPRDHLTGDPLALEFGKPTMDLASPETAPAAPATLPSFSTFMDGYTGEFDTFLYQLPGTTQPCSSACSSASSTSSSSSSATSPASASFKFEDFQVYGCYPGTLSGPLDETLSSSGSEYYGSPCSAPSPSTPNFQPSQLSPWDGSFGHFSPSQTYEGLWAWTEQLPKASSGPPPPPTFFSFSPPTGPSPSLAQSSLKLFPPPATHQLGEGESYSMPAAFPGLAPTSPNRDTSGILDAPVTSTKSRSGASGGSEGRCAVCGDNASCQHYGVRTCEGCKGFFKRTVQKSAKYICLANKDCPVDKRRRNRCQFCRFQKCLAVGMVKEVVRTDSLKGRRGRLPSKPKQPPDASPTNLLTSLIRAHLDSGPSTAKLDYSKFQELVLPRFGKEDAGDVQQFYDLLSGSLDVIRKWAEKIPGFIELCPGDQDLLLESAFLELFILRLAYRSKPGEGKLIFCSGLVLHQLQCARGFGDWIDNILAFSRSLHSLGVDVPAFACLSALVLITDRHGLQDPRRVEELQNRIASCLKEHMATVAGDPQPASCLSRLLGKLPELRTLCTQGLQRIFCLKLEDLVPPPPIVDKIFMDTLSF

Tests used:
[1] = target: NR4A1 (endogenous) (Mus musculus) (UniProt P12813); test: pull-down; conditions: pull-down: 50 pmol probe, 250 ug extract, 4 C 3 h, protein in an extract
[2] = target: His-GST-NR4A1 (Mus musculus) (UniProt P12813); test: EMSA; conditions: glutaraldehyde 0.2% added after binding; 10 mM HEPES pH 7.6, 50 mM KCl, 1 mM EDTA, 0.05% Triton X-100, 5% glycerol, 1 mM DTT, 40 U/ml RNasin; REMSA: 2 nM probe, room temperature 30 min; recombinant protein; protein details: His-GST; label: 5' biotin

**Q.** Does “CGUCUCAGACACAGACAGCU [AGACA probe, unmethylated]” bind ([1]; label: 5' biotin)?
**A.** Result: binds more weakly

**Q.** Does CGUCUCGGACUCGGACUGCU [GGACU probe, m6A] bind ([1]; m6A at positions 9 and 15 (as printed: CGUCUCGG(m6A)CUCGG(m6A)CUGCU), label: 5' …)?
**A.** Result: binds

**Q.** Does “CGUCUCGGACUCGGACUGCU [GGACU probe, unmethylated]” bind ([1]; label: 5' biotin)?
**A.** Result: binds more weakly

**Q.** Does “CGUCUCGGACUCGGACUGCU [GGACU probe, unmethylated]” bind [2]?
**A.** Result: binds more weakly

**Q.** Does CGUCUCAGACACAGACAGCU [AGACA probe, m6A] bind ([1]; m6A at positions 9 and 15 (as printed: CGUCUCAG(m6A)CACAG(m6A)CAGCU), label: 5' …)?
**A.** Result: binds
